From PMC10674987, “Sweet Cherry Extract as Permeation Enhancer of Tyrosine Kinase Inhibitors: A Promising Prospective for Future Oral Anticancer Therapies” (Pharmaceuticals, 2023)

Assays:
[1] = known from literature; cited from earlier work
Caco-2 cells = test: Cell viability assay (MTT) on Caco-2 cells; format: cell-based, human; details: 2 h
Description: Cells were sub-cultured using a 1× trypsin/EDTA solution and then passed every 3–4 days at appropriate ratios (typically 1:3, 1:6, 1:12). […] After 2 h of treatment, solutions were aspirated from the wells, and the cells were washed with pre-warmed PBS. […] To supplement MTT data and support the hypothesis of no toxic effect due to treatment with SCE, cytotoxicity assays were carried out by careful examination of cells under a microscope, as indicated in USP 28 (United States Pharmacopeia edition 2005) as an alternative method. […] Furthermore, it was mandatory to identify the most suitable drug concentration that would avoid cytotoxic effects on Caco-2 cells (a condition that may bias the permeability study) and that would allow the optimal chromatographic response when analyzing the samples obtained. Therefore, cells were exposed to increasing concentrations of drugs (1–10–100 µM) for 2 h. Concentrations were chosen to identify the best one to use for permeability studies that may ensure an adequate amount of compound to be quantified by the HPLC-UV/MS method, whilst not causing cytotoxic effects that would alter the experiment. […] Cell viability was assessed as above described.

[2] = Bidirectional permeability in Caco-2 cells in absence and presence of SCE; format: in vitro ADME, human; details: human, 10 µM compound; for Papp A→B at 2 h, 10 µM: apical to basolateral; for Papp B→A at 2 h, 10 µM: basolateral to apical
Description: (§1) Caco-2 cells were seeded at a density of 2 × 10^4 on Transwell supports (0.4 µm pore polycarbonate membrane, 6.5 mm) and incubated overnight in a controlled atmosphere of 37 °C and 5% of CO2. The following day, the medium was changed to remove floating cells and fresh pre-warmed DMEM 20% was added (300 µL in the apical compartment and 1200 µL in the basal one). Cells were cultured for approximately 18–21 days in order to ensure that the cellular monolayers differentiated and many transport proteins and brush border hydrolases were expressed. Media were changed every 2–3 days.
(§2) For permeability studies, stock solutions of compounds were prepared by solubilizing 1.0 mg of accurately weighed powder with dimethyl sulfoxide (DMSO) and conserved at −20 °C. Immediately prior to the experiments, working solutions (WS) were prepared by diluting the stock solutions with pre-warmed HBSS to the final concentration of 10 µM. The final concentration of DMSO used never exceeded 0.1% v/v. The assays were performed in both the absorptive (from apical-to-basolateral compartment (A-B)) and the secretory direction (from basolateral-to-apical compartment (B-A)), both in the absence (Free) and presence of sweet cherry extract (+SCE [1 mg/mL]) diluted in HBSS. The final volumes used for the experiment were 300 µL in the apical compartment and 1200 µL in the basolateral one. Plates were incubated at 37 °C and maintained under gentle shaking (500 rpm) to reduce the effect of the unstirred water layer. At selected time points (T0–0.25–0.5–1–2 h-TEND for the A-B studies; T0–2 h–TEND for the B-A studies), samples (200 µL) were collected from the receiving compartments (from the basolateral compartment for the A-B assay; from the apical one for the B-A study) and replaced with the same volume of HBSS. The HPLC-UV/MS method was developed to quantify the amount of drug transferred across the cellular monolayer, and permeability (Papp, 10^−6 cm/s) and efflux ratio (ER) were calculated according to the following equations:Papp = (dQ/dt) × 1/(A × C0)(5) where dQ/dt is the steady-state flux (µmol s^−1), A is the area of the filter (cm^2), and C0 is the initial concentration in the donor compartment (µM). ER = (Papp B-A)/(Papp A-B)(6)
(§3) Chromatographic analyses were carried out using an Agilent 1260 Infinity HPLC-DAD system connected to an Agilent MSD 6130 system (Agilent Technologies, Palo Alto, CA, USA). At room temperature, a Kinetex C18-100 Å column (150 mm 4.6 mm, purchased from Phenomenex, Torrance, CA, USA) with a 5 µm particle size and gradient elution with a binary solution (eluent A: H2O, eluent B: ACN, both acidified with 0.1% v/v formic acid) was for the chromatographic separation. Analyses started with 5% B (from t = 0 to t = 1 min), then increased to 95% (from t = 1 to t = 10 min), then maintained at 95% (from t = 10 to t = 15 min), and finally returned to […] in 1.0 min. The volume injected was 10 µL, and the flow rate 600 µL/min. UV detection was monitored at 254 nm, and spectra were collected in both the positive and negative modes within the scan range of m/z 100–1500.

Caco-2 monolayer = test: as above; format: in vitro ADME, human; details: +SCE 1 mg/mL vs Free
Description: as §1, §2, §3

Papp A→B at 2 h, 10 µM ([2]; Caco-2, +SCE [1 mg/mL]): 9.11 ± 0.572 ×10⁻⁶ cm/s
Papp B→A at 2 h, 10 µM ([2]; Caco-2, +SCE [1 mg/mL]): 7.27 ± 0.932 ×10⁻⁶ cm/s
Papp A→B at 2 h, 10 µM ([2]; Caco-2, Free): 0.284 ± 0.011 ×10⁻⁶ cm/s
Papp B→A at 2 h, 10 µM ([2]; Caco-2, Free): 1.02 ± 0.104 ×10⁻⁶ cm/s
Change of Papp A-B in presence of SCE vs Free (Caco-2 monolayer): about 30 fold
Change of Papp B-A in presence of SCE vs Free (Caco-2 monolayer): seven-fold
Structure (SMILES): CC(C)NCC(O)COc1ccc(CC(N)=O)cc1 (stereo not drawn) [Atenolol, atenolol, reference compound]
Papp [1]: less than 1 × 10^−6 cm/s
Cell viability (Caco-2 cells; 1 µM, vs untreated control): no significant signs of toxicity
Cell viability (Caco-2 cells; 100 µM): high percentages of viable cells
